# Experimental data as given in patent publication US6514737.
# Tested on: T1, AsiSI methylase (M.AsiSI) V1M (Arthrobacter sp. S)
# T1 sequence (limits assumed): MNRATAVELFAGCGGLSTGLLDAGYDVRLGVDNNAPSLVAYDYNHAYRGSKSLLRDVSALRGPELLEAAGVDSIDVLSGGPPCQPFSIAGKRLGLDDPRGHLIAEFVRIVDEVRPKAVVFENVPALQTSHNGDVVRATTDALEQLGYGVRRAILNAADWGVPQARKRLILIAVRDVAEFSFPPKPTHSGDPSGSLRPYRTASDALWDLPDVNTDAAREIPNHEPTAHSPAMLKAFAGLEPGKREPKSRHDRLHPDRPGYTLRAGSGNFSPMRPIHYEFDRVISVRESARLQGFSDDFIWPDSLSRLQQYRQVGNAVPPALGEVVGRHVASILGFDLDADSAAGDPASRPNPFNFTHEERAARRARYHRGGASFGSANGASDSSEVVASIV
# Test: activity in cells
# Conditions: pRRS(2AsiSI) co-transformed with pACYC-AsiSIM clones 1, 3, 4 became resistant to AsiSI digestion; protein in cells; only the site is given
sequence,measurement,value
GCGATCGC (double strand) [AsiSI sites in pRRS(2AsiSI) plasmid],activity on this sequence,active

# Tags and fusion partners may be left off the protein sequences shown.
